The list does not hold the whole screen: it gathers tests that were run many times, whatever their T/C, doses with no T/C, and many T/C values between a quarter and a half above the control. Other doses and runs of a compound stand elsewhere. T/C gives the treated animals as a percentage of the vehicle group. Some entries give survivors of the animals treated and no T/C: the source files T/C as zero there, which appears to mark a toxic dose or a test without result, not a measured value. Some survivor counts are full or nearly so, which does not show that the dose was tolerated: the source hardly ever lists a survival T/C far under the control, and the zero likely stands for such cases as well. Survivors were counted at the toxicity check, usually on the fifth day, unless a day is given; later deaths do not show. Schedule codes are those of the source, taken here to give the interval after Q, in days (D) or hours (H), and the number of doses after X. Some entries were tested several times; the values are given in rising order. Some schedules carry Z or #; the key to these is not given. Where survival is the endpoint, this PubChem deposit counts one and a half times the control or more as active, and values a quarter to a half above the control carry no call in these data; other NCI protocols may use other cut-offs. Some T/C values carry the count of animals alive at the toxicity check (mostly the fifth day); without a count, all were alive then.
Test system: L1210 leukemia ip in BDF1 mice, survival T/C
Assay: NCI In Vivo Anticancer Drug Screen. Data for tumor model L1210 Leukemia (intraperitoneal) in B6D2F1 (BDF1) mice
Details: T/C endpoint: mean survival time, higher T/C = longer survival
[1] = dose: 400.0 mg/kg/injection, schedule: Q01DX001 (ip), vehicle: other
[2] = dose: 400.0 mg/kg/injection, schedule: Q01DX001 (ip), vehicle: saline
[3] = dose: 20.0 mg/kg/injection, schedule: Q01DX009 (ip), vehicle: saline
[4] = dose: 40.0 mg/kg/injection, schedule: Q01DX009 (ip), vehicle: saline
[5] = dose: 200.0 mg/kg/injection, schedule: Q04DX003 (ip), vehicle: Klucel (hydroxypropylcellulose) (HPC)
[6] = dose: 400.0 mg/kg/injection, schedule: Q04DX003 (ip), vehicle: Klucel (hydroxypropylcellulose) (HPC)
[7] = dose: 300.0 mg/kg/injection, schedule: Q01DX001 (ip), vehicle: saline
[8] = dose: 100.0 mg/kg/injection, schedule: Q04DX003 (ip), vehicle: Klucel (hydroxypropylcellulose) (HPC)

## c1cc[c]([Sn]([S]c2ncnc3c2nc[n]3[Sn]([c]2ccccc2)([c]2ccccc2)[c]2ccccc2)([c]2ccccc2)[c]2ccccc2)cc1.c1cc[c]([Sn]([S]c2ncnc3nc[nH]c23)([c]2ccccc2)[c]2ccccc2)cc1
dose: 40.0 mg/kg/injection, schedule: Q01DX001 (ip), vehicle: other
  survivor count: 0 of 6
dose: 80.0 mg/kg/injection, schedule: Q01DX001 (ip), vehicle: other
  survivor count: 0 of 6
dose: 100.0 mg/kg/injection, schedule: Q01DX001 (ip), vehicle: other
  survivor count: 0 of 6
dose: 200.0 mg/kg/injection, schedule: Q01DX001 (ip), vehicle: other
  survivor count: 1 of 6
[1]
  survivor count: 0 of 6

## CC1=NC(C(=O)Cl)NN1c1ccccc1 (centres undefined)
dose: 200.0 mg/kg/injection, schedule: Q01DX001 (ip), vehicle: saline
  survivor count: 6 of 6
[2]
  survivor count: 3 of 6

## O=C[C@@H](CO)O[C@H](C=O)c1c[nH]c(=O)[nH]c1=O
[3]
  T/C: 137 % of control
dose: 25.0 mg/kg/injection, schedule: Q01DX009 (ip), vehicle: saline
  T/C: 146 % of control
dose: 30.0 mg/kg/injection, schedule: Q01DX009 (ip), vehicle: saline
  T/C: 131 % of control
dose: 35.0 mg/kg/injection, schedule: Q01DX009 (ip), vehicle: saline
  T/C: 148 % of control
[4]
  T/C: 140 % of control
dose: 100.0 mg/kg/injection, schedule: Q03DX003 (ip), vehicle: saline
  T/C: 144 % of control [7 of 8 alive]

## Clc1ccc(Cl)c(/C=C/c2ccc(Cl)c(Cl)c2)c1
dose: 12.5 mg/kg/injection, schedule: Q01DX009 (ip), vehicle: Klucel (hydroxypropylcellulose) (HPC)
  survivor count: 2 of 6
dose: 25.0 mg/kg/injection, schedule: Q01DX009 (ip), vehicle: Klucel (hydroxypropylcellulose) (HPC)
  survivor count: 0 of 6
dose: 50.0 mg/kg/injection, schedule: Q01DX009 (ip), vehicle: Klucel (hydroxypropylcellulose) (HPC)
  survivor count: 0 of 6
dose: 100.0 mg/kg/injection, schedule: Q01DX009 (ip), vehicle: Klucel (hydroxypropylcellulose) (HPC)
  survivor count: 0 of 6
[5]
  survivor count: 6 of 6
[6]
  survivor count: 0 of 6

## C/C=C/C=C/C=N/N=C(N)N
dose: 30.0 mg/kg/injection, schedule: Q01DX Z (ip), vehicle: carboxymethylcellulose (CMC)
  survivor count: 2 of 6
dose: 60.0 mg/kg/injection, schedule: Q01DX Z (ip), vehicle: carboxymethylcellulose (CMC)
  survivor count: 0 of 6
dose: 120.0 mg/kg/injection, schedule: Q01DX Z (ip), vehicle: carboxymethylcellulose (CMC)
  survivor count: 0 of 6
dose: 480.0 mg/kg/injection, schedule: Q01DX Z (oral), vehicle: carboxymethylcellulose (CMC)
  survivor count: 1 of 6
dose: 960.0 mg/kg/injection, schedule: Q01DX Z (oral), vehicle: carboxymethylcellulose (CMC)
  survivor count: 0 of 6

## Cc1ccccc1N=Cc1ccccc1O.[Co]
[1]
  survivor count: 1 of 6

## CCCCOCN1COCC1(C)C
dose: 400.0 mg/kg/injection, schedule: Q04DX003 (ip), vehicle: saline with Tween-80
  survivor count: 4 of 6

## N#CC(CC(=O)O)=C(c1ccccc1)c1ccccc1
dose: 400.0 mg/kg/injection, schedule: Q01DX001 (ip), vehicle: Klucel (hydroxypropylcellulose) (HPC)
  survivor count: 2 of 6
dose: 400.0 mg/kg/injection, schedule: Q01DX009 (ip), vehicle: Klucel (hydroxypropylcellulose) (HPC)
  survivor count: 0 of 3 and 3 of 6
dose: 400.0 mg/kg/injection, schedule: Q04DX002 (ip), vehicle: Klucel (hydroxypropylcellulose) (HPC)
  survivor count: 2 of 3 and 6 of 6
[6]
  survivor count: 0 of 6

## CCCCN1C(=O)c2cccnc2C1=O
dose: 200.0 mg/kg/injection, schedule: Q04DX003 (ip), vehicle: saline with Tween-80
  survivor count: 6 of 6

## CCN(CC)CCNc1ccc(CO)c2oc3ccccc3c(=O)c12
dose: 400.0 mg/kg/injection, schedule: Q01DX009 (ip), vehicle: saline
  survivor count: 0 of 6

## CC(=O)OCCC[P+](c1ccccc1)(c1ccccc1)c1ccccc1
[2]
  survivor count: 0 of 6

## Brc1cnn2c1NCC2
dose: 100.0 mg/kg/injection, schedule: Q04DX003 (ip), vehicle: water
  survivor count: 6 of 6
dose: 200.0 mg/kg/injection, schedule: Q04DX003 (ip), vehicle: water
  survivor count: 6 of 6
dose: 400.0 mg/kg/injection, schedule: Q01DX009 (ip), vehicle: water
  survivor count: 0 of 6
dose: 400.0 mg/kg/injection, schedule: Q04DX003 (ip), vehicle: water
  survivor count: 4 of 6

## CN1C2CCC1CC(=O)C2
[7]
  survivor count: 0 of 6

## Nc1ccc(S(=O)(=O)c2cc(O)c3ccccc3c2O)cc1
dose: 50.0 mg/kg/injection, schedule: Q01DX009 (ip), vehicle: saline
  survivor count: 0 of 6
[8]
  survivor count: 2 of 6
[5]
  survivor count: 0 of 6
[6]
  survivor count: 1 of 6

## Nc1nnnn1N(Cc1ccccc1)Cc1ccccc1
[6]
  survivor count: 3 of 6

## CCC(=O)NC1=C(N2CC2)C(=O)C(NC(=O)CC)=C(N2CC2)C1=O
dose: 0.62 mg/kg/injection, schedule: Q01DX009 (ip), vehicle: Klucel (hydroxypropylcellulose) (HPC)
  T/C: 135 % of control
dose: 1.25 mg/kg/injection, schedule: Q04DX003 (ip), vehicle: Klucel (hydroxypropylcellulose) (HPC)
  T/C: 146 % of control
dose: 2.5 mg/kg/injection, schedule: Q01DX001 (ip), vehicle: saline with Tween-80
  T/C: 135 % of control
dose: 2.5 mg/kg/injection, schedule: Q01DX009 (ip), vehicle: Klucel (hydroxypropylcellulose) (HPC)
  T/C: 147 % of control
dose: 5.0 mg/kg/injection, schedule: Q01DX001 (ip), vehicle: saline
  T/C: 145 % of control
dose: 10.0 mg/kg/injection, schedule: Q01DX009 (ip), vehicle: Klucel (hydroxypropylcellulose) (HPC)
  survivor count: 8 of 10
dose: 19.0 mg/kg/injection, schedule: Q01DX001 (ip), vehicle: saline
  survivor count: 0 of 6
dose: 20.0 mg/kg/injection, schedule: Q01DX001 (ip), vehicle: saline with Tween-80
  survivor count: 10 of 10
[3]
  survivor count: 6 of 6
dose: 20.0 mg/kg/injection, schedule: Q04DX003 (ip), vehicle: Klucel (hydroxypropylcellulose) (HPC)
  survivor count: 3 of 10
dose: 38.0 mg/kg/injection, schedule: Q01DX001 (ip), vehicle: saline
  survivor count: 1 of 6
dose: 40.0 mg/kg/injection, schedule: Q01DX001 (ip), vehicle: saline with Tween-80
  survivor count: 7 of 10
[4]
  survivor count: 6 of 6
dose: 40.0 mg/kg/injection, schedule: Q04DX003 (ip), vehicle: Klucel (hydroxypropylcellulose) (HPC)
  survivor count: 3 of 10
dose: 75.0 mg/kg/injection, schedule: Q01DX001 (ip), vehicle: saline
  survivor count: 2 of 6 and 4 of 6
dose: 150.0 mg/kg/injection, schedule: Q01DX001 (ip), vehicle: saline
  survivor count: 2 of 6 and 4 of 6
[7]
  survivor count: 0 of 6

## CCS(=O)(=O)/C=C\S(=O)(=O)CC
[8]
  survivor count: 1 of 6
[5]
  survivor count: 0 of 6
[6]
  survivor count: 0 of 6

## CC1CCC(C)(C)CC1(C)c1cc(CN(C)C)c(O)c(CN(C)C)c1 (centres undefined)
dose: 100.0 mg/kg/injection, schedule: Q04DX003 (ip), vehicle: acetone
  survivor count: 3 of 6
dose: 200.0 mg/kg/injection, schedule: Q04DX003 (ip), vehicle: acetone
  survivor count: 0 of 6
dose: 400.0 mg/kg/injection, schedule: Q04DX003 (ip), vehicle: acetone
  survivor count: 0 of 6

## CC(=O)CC(=O)Nc1cc(Cl)c(NC(=O)CC(C)=O)cc1Cl
dose: 100.0 mg/kg/injection, schedule: Q04DX003 (ip), vehicle: saline with Tween-80
  T/C: 125 % of control

## CC1CN=C(c2ccc(NC(=O)Nc3ccc(C4=NCCN4)cc3)cc2)N1 (centres undefined)
dose: 7.5 mg/kg/injection, schedule: Q01DX Z (ip), vehicle: saline
  survivor count: 6 of 6
dose: 15.0 mg/kg/injection, schedule: Q01DX Z (ip), vehicle: saline
  survivor count: 0 of 6

Reference: PubChem BioAssay AID248 (DTP/NCI, 2004)
